From US20180044435A1 (GENEFRONTIER, published 2018)
No constants are given. Whether binding was seen depends on the method and setting. Some entries that bind do so weakly or less than the wild type. Where a sequence is shown, tags or fusion partners need not be part of it.

Key:
[1] = target: T1, MBP-mouse ADAM28m 527-622 (mouse, UniProt Q9JLN6 527-622); test: ELISA, antigen immobilized on the plate at 5 µg/ml, 2B6D10 titrated, anti-mouse IgG-HRP, TMB
T1 sequence: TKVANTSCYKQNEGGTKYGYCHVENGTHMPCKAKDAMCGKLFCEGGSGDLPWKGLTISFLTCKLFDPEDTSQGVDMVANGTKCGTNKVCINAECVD

[2] = target: T1, MBP-mouse ADAM28m 527-622; test: ELISA, antigen immobilized at 5 µg/ml, anti-mouse IgG-HRP, TMB
[3] = target: T2, fusion protein of MBP with region 524-543 of human membrane-anchored form ADAM28 (SEQ ID NO: 2) at its C-terminal (human); test: Western blotting
T2 sequence: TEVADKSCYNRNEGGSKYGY

[4] = target: T3, fusion protein of MBP with region 536-545 of human membrane-anchored form ADAM28 (SEQ ID NO: 2) at its C-terminal (human); test: Western blotting
T3 sequence: EGGSKYGYCR

[5] = target: T4, fusion protein of MBP with region 534-553 of human membrane-anchored form ADAM28 (SEQ ID NO: 2) at its C-terminal (human); test: Western blotting
T4 sequence: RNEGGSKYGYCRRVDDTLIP

[6] = target: T5, fusion protein of MBP with region 536-543 of human membrane-anchored form ADAM28 (SEQ ID NO: 2) at its C-terminal (human); test: Western blotting
T5 sequence: EGGSKYGY

Measured: binding

B1: anti-human membrane-anchored form ADAM28 antibody 2B6D10 (antibody, V domains shown)
VH: QVQLQQSGAELARPGASVKLSCKASGYTFTSYGISWVKQRTGQGLEWIGEIYPRSGNTYYNEKFKGKATLTADKSSSTAYMELRRLTSEDSAVFFCARENVYSSNYGFAFWGQGTLVTVSA
VL: DVLMTQTPLSLPVSLGDQASISCRSSQNIIHSDGNTYLEWYLQKPGQSPKFLIYKVSNRFSGVPDRFSGSGSGTDFTLKISRVEAEDLGVYYCLQGSHVPWTFGGGTKLEIKR
notes: Mouse monoclonal antibody from a hybridoma, detected with anti-mouse IgG; also called 2B6D10 antibody; clone 2B6D10
binds: all assays above
